Test results taken from PubChem BioAssay AID248 (DTP/NCI, 2004).
The list is a part of this screen's results and no random one: it is rich in T/C values a quarter to a half above the control, in often repeated tests (any T/C) and in doses without a T/C. Other doses and runs of a compound stand elsewhere. T/C gives the treated animals as a percentage of the vehicle group. Some entries give survivors of the animals treated and no T/C: the source files T/C as zero there, which appears to mark a toxic dose or a test without result, not a measured value. Some survivor counts are full or nearly so, which does not show that the dose was tolerated: the source hardly ever lists a survival T/C far under the control, and the zero likely stands for such cases as well. Survivors were counted at the toxicity check, usually on the fifth day, unless a day is given; later deaths do not show. Schedules are NCI's codes, taken here to give the interval after Q, in days (D) or hours (H), and the number of doses after X.

Tested on: L1210 leukemia ip in BDF1 mice, survival T/C
Assay: NCI In Vivo Anticancer Drug Screen. Data for tumor model L1210 Leukemia (intraperitoneal) in B6D2F1 (BDF1) mice
Conditions: T/C endpoint: mean survival time, higher T/C = longer survival
[1] = dose: 400.0 mg/kg/injection, schedule: Q04DX003 (ip), vehicle: saline with Tween-80
[2] = dose: 400.0 mg/kg/injection, schedule: Q04DX003 (ip), vehicle: Klucel (hydroxypropylcellulose) (HPC)
[3] = dose: 200.0 mg/kg/injection, schedule: Q01DX009 (ip), vehicle: saline with Tween-80

CCCCN(CC)CCNc1cc(C)nc(/N=C(\N)Nc2ccc(Cl)c(Cl)c2)n1
survivor count (dose: 75.0 mg/kg/injection, schedule: Q01DX001 (ip), vehicle: other): 3 of 6 | survivor count (dose: 75.0 mg/kg/injection, schedule: Q01DX009 (ip), vehicle: Klucel (hydroxypropylcellulose) (HPC)): 1 of 6 | survivor count (dose: 150.0 mg/kg/injection, schedule: Q01DX001 (ip), vehicle: other): 0 of 6 | survivor count (dose: 300.0 mg/kg/injection, schedule: Q01DX001 (ip), vehicle: other): 0 of 6

C(C[P+](c1ccccc1)(c1ccccc1)c1ccccc1)=C(c1ccccc1)c1ccccc1
survivor count (dose: 20.0 mg/kg/injection, schedule: Q01DX001 (ip), vehicle: saline): 3 of 6 | survivor count (dose: 75.0 mg/kg/injection, schedule: Q01DX001 (ip), vehicle: saline): 0 of 6 | survivor count (dose: 150.0 mg/kg/injection, schedule: Q01DX001 (ip), vehicle: saline): 0 of 6 | survivor count (dose: 300.0 mg/kg/injection, schedule: Q01DX001 (ip), vehicle: saline): 1 of 6

N#CCc1nn(-c2ccccc2)c(N)c1C#N
survivor count (dose: 225.0 mg/kg/injection, schedule: Q01DX001 (ip), vehicle: Klucel (hydroxypropylcellulose) (HPC)): 3 of 6

N#CSC/C(Br)=C/Br
survivor count (dose: 100.0 mg/kg/injection, schedule: Q04DX003 (ip), vehicle: saline with Tween-80): 1 of 6 | survivor count (dose: 200.0 mg/kg/injection, schedule: Q04DX003 (ip), vehicle: saline with Tween-80): 0 of 6 | survivor count [1]: 0 of 6

O=C(OCC(Cl)(Cl)Cl)OCC(Cl)(Cl)Cl
survivor count [2]: 4 of 6

CCCCCCC(=O)N1CCOCC1
survivor count (dose: 200.0 mg/kg/injection, schedule: Q04DX002 (ip), vehicle: saline): 2 of 3 | survivor count (dose: 400.0 mg/kg/injection, schedule: Q04DX002 (ip), vehicle: saline): 0 of 3

C=CCC(CC)C(=O)O (stereo not drawn)
survivor count (dose: 400.0 mg/kg/injection, schedule: Q01DX009 (ip), vehicle: saline): 1 of 6

O=C1O[C@@H]2[C@@H](I)[C@@H]3C[C@@H]2[C@@H]1C3
survivor count (dose: 100.0 mg/kg/injection, schedule: Q01DX001 (ip), vehicle: carboxymethylcellulose (CMC)): 1 of 4 | survivor count (dose: 200.0 mg/kg/injection, schedule: Q01DX001 (ip), vehicle: carboxymethylcellulose (CMC)): 1 of 4 | survivor count (dose: 400.0 mg/kg/injection, schedule: Q01DX001 (ip), vehicle: carboxymethylcellulose (CMC)): 1 of 4

CC(=O)Nc1nc(C=O)cc(=O)[nH]1
survivor count (dose: 200.0 mg/kg/injection, schedule: Q01DX001 (ip), vehicle: other): 4 of 4

CC(C1CCC/C(=N\NC(N)=O)C1)[N+](=O)[O-] (stereo not drawn)
survivor count [3]: 3 of 6 | survivor count [1]: 1 of 6

CC1(C)N=C(N)N=C(N)N1c1cccc(CCCCc2cccc(NC(=O)CBr)c2)c1
survivor count (dose: 80.0 mg/kg/injection, schedule: Q01DX001 (ip), vehicle: saline): 1 of 4 | survivor count (dose: 100.0 mg/kg/injection, schedule: Q01DX001 (ip), vehicle: saline): 2 of 4 | survivor count (dose: 200.0 mg/kg/injection, schedule: Q01DX001 (ip), vehicle: saline): 0 of 4 | survivor count (dose: 400.0 mg/kg/injection, schedule: Q01DX001 (ip), vehicle: saline): 0 of 4

NC(N)=NCCCC(NC(=O)OCc1ccccc1)C(=O)Nc1ccc2ccccc2c1 (stereo not drawn)
survivor count (dose: 400.0 mg/kg/injection, schedule: Q01DX009 (ip), vehicle: Klucel (hydroxypropylcellulose) (HPC)): 0 of 6

Nc1c(C(=O)O)cc(Br)c2c1C(=O)c1ccccc1C2=O
survivor count [2]: 5 of 6

Cc1ccc(S(=O)(=O)OC2CC(C(=O)O)N(S(=O)(=O)c3ccc(C)cc3)C2)cc1 (stereo not drawn)
survivor count (dose: 400.0 mg/kg/injection, schedule: Q01DX009 (ip), vehicle: saline with Tween-80): 6 of 6

CCOC(=O)c1ccc(NCC(C)(C)[N+](=O)[O-])cc1
survivor count (dose: 100.0 mg/kg/injection, schedule: Q01DX009 (ip), vehicle: saline): 6 of 6 | survivor count (dose: 200.0 mg/kg/injection, schedule: Q01DX009 (ip), vehicle: saline): 6 of 6

O=C1C2CCC(C2)C1C(O)(C(F)(F)F)C(F)(F)F (stereo not drawn)
survivor count [3]: 3 of 6 | survivor count [1]: 0 of 6
